Substitutions are numbered along the chain they refer to. Names and notes keep the numbering of the source. These are yes or no findings as the source states them, for the method shown. For some assays here: In cells and extracts the contact can be indirect. Some results given as binding are weak or reduced against the parent protein; the word gives no strength. Sequences can lack the tags named with a protein.

Test [1] addresses T1, Nuclear transcription factor erythroid 2p45 (NF-E2)-related factor 2 (NRF2), endogenous (human (endogenous in NCI-H1299)) (UniProt Q16236).
T1 sequence: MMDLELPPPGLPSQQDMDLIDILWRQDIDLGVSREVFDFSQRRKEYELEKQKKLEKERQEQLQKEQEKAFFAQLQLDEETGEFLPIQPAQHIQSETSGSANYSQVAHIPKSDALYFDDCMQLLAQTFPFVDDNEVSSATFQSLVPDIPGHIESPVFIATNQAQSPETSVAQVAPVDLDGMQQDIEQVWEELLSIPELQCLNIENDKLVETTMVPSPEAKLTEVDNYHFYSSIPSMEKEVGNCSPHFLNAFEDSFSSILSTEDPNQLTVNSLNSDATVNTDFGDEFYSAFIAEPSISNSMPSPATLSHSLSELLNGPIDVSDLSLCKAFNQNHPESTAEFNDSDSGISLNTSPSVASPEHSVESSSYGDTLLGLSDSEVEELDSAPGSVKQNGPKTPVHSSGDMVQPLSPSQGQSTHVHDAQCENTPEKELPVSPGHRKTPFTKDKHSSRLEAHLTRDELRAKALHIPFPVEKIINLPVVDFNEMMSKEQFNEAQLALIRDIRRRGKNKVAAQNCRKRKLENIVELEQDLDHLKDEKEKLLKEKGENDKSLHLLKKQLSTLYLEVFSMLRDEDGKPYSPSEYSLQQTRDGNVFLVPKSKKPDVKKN
Nature of the test: co-IP; endogenous proteins of NCI-H1299 (or NCI-H1299^NRF2-WT / NCI-H1299^NRF2-S103A) cells; NP40 lysis solution with 40 mM GlcNAc, 10 µM PUGNAc, 2 mM STZ, 10 µM Thiamet G and protease inhibitors; primary antibody with protein A/G beads overnight, five washes, immunoblot; cells untreated or treated with Thiamet G (2 µM, 2 h), H2O2 (50 µM, 45 min), AICAR (1 mM, 1 h), A-769662 (50 µM, 1 h) or cisplatin (10 µM, 2 h).

The target of test [2] is T2, GST-NRF2 (GST-tagged NRF2^WT, expressed without OGT; naked recombinant NRF2) (UniProt Q16236).
T2 sequence: T1 sequence
Nature of the test: pull-down; in vitro GST pull-down with purified recombinant GST-NRF2 and His-OGT; both purified.

Test [3] deals with T1, Nuclear transcription factor erythroid 2p45 (NF-E2)-related factor 2 (NRF2), endogenous (human (endogenous in NCI-H1299)). Briefly: co-IP; NCI-H1299 cells expressing Flag-tagged OGT^WT, OGT^T444E or OGT^T444A; NRF2 detected by immunoblot.

B1: N-acetylglucosamine transferase (OGT), endogenous (enzyme, UniProt O15294 1-1046)
chain: MASSVGNVADSTEPTKRMLSFQGLAELAHREYQAGDFEAAERHCMQLWRQEPDNTGVLLLLSSIHFQCRRLDRSAHFSTLAIKQNPLLAEAYSNLGNVYKERGQLQEAIEHYRHALRLKPDFIDGYINLAAALVAAGDMEGAVQAYVSALQYNPDLYCVRSDLGNLLKALGRLEEAKACYLKAIETQPNFAVAWSNLGCVFNAQGEIWLAIHHFEKAVTLDPNFLDAYINLGNVLKEARIFDRAVAAYLRALSLSPNHAVVHGNLACVYYEQGLIDLAIDTYRRAIELQPHFPDAYCNLANALKEKGSVAEAEDCYNTALRLCPTHADSLNNLANIKREQGNIEEAVRLYRKALEVFPEFAAAHSNLASVLQQQGKLQEALMHYKEAIRISPTFADAYSNMGNTLKEMQDVQGALQCYTRAIQINPAFADAHSNLASIHKDSGNIPEAIASYRTALKLKPDFPDAYCNLAHCLQIVCDWTDYDERMKKLVSIVADQLEKNRLPSVHPHHSMLYPLSHGFRKAIAERHGNLCLDKINVLHKPPYEHPKDLKLSDGRLRVGYVSSDFGNHPTSHLMQSIPGMHNPDKFEVFCYALSPDDGTNFRVKVMAEANHFIDLSQIPCNGKAADRIHQDGIHILVNMNGYTKGARNELFALRPAPIQAMWLGYPGTSGALFMDYIITDQETSPAEVAEQYSEKLAYMPHTFFIGDHANMFPHLKKKAVIDFKSNGHIYDNRIVLNGIDLKAFLDSLPDVKIVKMKCPDGGDNADSSNTALNMPVIPMNTIAEAVIEMINRGQIQITINGFSISNGLATTQINNKAATGEEVPRTIIVTTRSQYGLPEDAIVYCNFNQLYKIDPSTLQMWANILKRVPNSVLWLLRFPAVGEPNIQQYAQNMGLPQNRIIFSPVAPKEEHVRRGQLADVCLDTPLCNGHTTGMDVLWAGTPMVTMPGETLASRVAASQLTCLGCLELIAKNRQEYEDIAVKLGTDLEYLKKVRGKVWKQRISSPLFNTKQYTMELERLYLQMWEHYAAGNKPDHMIKPVEVTESA
With B1, the binding entry in test [1] is listed as “binds”.

B2: His-OGT, recombinant (enzyme, UniProt O15294 1-1046)
chain: B1 chain
For the molecule B2, the binding result in test [2] is “binds”.

B3: Flag-tagged OGT^WT (enzyme, UniProt O15294-3 1-1036)
chain: MASSVGNVADSTGLAELAHREYQAGDFEAAERHCMQLWRQEPDNTGVLLLLSSIHFQCRRLDRSAHFSTLAIKQNPLLAEAYSNLGNVYKERGQLQEAIEHYRHALRLKPDFIDGYINLAAALVAAGDMEGAVQAYVSALQYNPDLYCVRSDLGNLLKALGRLEEAKACYLKAIETQPNFAVAWSNLGCVFNAQGEIWLAIHHFEKAVTLDPNFLDAYINLGNVLKEARIFDRAVAAYLRALSLSPNHAVVHGNLACVYYEQGLIDLAIDTYRRAIELQPHFPDAYCNLANALKEKGSVAEAEDCYNTALRLCPTHADSLNNLANIKREQGNIEEAVRLYRKALEVFPEFAAAHSNLASVLQQQGKLQEALMHYKEAIRISPTFADAYSNMGNTLKEMQDVQGALQCYTRAIQINPAFADAHSNLASIHKDSGNIPEAIASYRTALKLKPDFPDAYCNLAHCLQIVCDWTDYDERMKKLVSIVADQLEKNRLPSVHPHHSMLYPLSHGFRKAIAERHGNLCLDKINVLHKPPYEHPKDLKLSDGRLRVGYVSSDFGNHPTSHLMQSIPGMHNPDKFEVFCYALSPDDGTNFRVKVMAEANHFIDLSQIPCNGKAADRIHQDGIHILVNMNGYTKGARNELFALRPAPIQAMWLGYPGTSGALFMDYIITDQETSPAEVAEQYSEKLAYMPHTFFIGDHANMFPHLKKKAVIDFKSNGHIYDNRIVLNGIDLKAFLDSLPDVKIVKMKCPDGGDNADSSNTALNMPVIPMNTIAEAVIEMINRGQIQITINGFSISNGLATTQINNKAATGEEVPRTIIVTTRSQYGLPEDAIVYCNFNQLYKIDPSTLQMWANILKRVPNSVLWLLRFPAVGEPNIQQYAQNMGLPQNRIIFSPVAPKEEHVRRGQLADVCLDTPLCNGHTTGMDVLWAGTPMVTMPGETLASRVAASQLTCLGCLELIAKNRQEYEDIAVKLGTDLEYLKKVRGKVWKQRISSPLFNTKQYTMELERLYLQMWEHYAAGNKPDHMIKPVEVTESA
Consider B3, for which, in test [3], the binding result is on record as “binds”.

B4: Flag-tagged OGT^T444A (enzyme, UniProt O15294-3 1-1036)
chain: B3 chain with T444A
In the case of B4, in test [3], the binding result is “binds”.

B5: Flag-tagged OGT^T444E (enzyme, UniProt O15294-3 1-1036)
chain: B3 chain with T444E
As for B5, in test [3], the binding entry is listed as “binds”.

Source of the values: publication PMC11447106 (Clinical and Translational Medicine, 2024).
